The supplement of paper PMC7666118
This is one part of the list.

Protein sequences, listed by entry. Tags and fused reporters are not part of them. Lines headed by an entry give the natural chain unless they say otherwise; changes in a name come on top.
UniProt P35052: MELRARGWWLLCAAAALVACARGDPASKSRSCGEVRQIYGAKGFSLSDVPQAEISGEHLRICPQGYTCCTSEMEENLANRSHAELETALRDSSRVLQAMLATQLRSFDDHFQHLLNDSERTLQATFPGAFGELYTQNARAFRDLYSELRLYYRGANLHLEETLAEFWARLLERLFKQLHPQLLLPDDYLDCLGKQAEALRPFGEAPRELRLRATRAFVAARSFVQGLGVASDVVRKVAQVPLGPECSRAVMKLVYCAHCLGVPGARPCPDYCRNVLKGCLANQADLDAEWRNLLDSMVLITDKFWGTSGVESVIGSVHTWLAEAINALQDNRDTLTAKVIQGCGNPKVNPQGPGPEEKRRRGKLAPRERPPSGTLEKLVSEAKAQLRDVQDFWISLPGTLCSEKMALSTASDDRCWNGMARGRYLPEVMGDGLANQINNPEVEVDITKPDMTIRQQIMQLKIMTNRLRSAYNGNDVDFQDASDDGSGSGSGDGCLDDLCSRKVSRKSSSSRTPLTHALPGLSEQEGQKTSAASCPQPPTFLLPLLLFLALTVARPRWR
UniProt Q9NRY4: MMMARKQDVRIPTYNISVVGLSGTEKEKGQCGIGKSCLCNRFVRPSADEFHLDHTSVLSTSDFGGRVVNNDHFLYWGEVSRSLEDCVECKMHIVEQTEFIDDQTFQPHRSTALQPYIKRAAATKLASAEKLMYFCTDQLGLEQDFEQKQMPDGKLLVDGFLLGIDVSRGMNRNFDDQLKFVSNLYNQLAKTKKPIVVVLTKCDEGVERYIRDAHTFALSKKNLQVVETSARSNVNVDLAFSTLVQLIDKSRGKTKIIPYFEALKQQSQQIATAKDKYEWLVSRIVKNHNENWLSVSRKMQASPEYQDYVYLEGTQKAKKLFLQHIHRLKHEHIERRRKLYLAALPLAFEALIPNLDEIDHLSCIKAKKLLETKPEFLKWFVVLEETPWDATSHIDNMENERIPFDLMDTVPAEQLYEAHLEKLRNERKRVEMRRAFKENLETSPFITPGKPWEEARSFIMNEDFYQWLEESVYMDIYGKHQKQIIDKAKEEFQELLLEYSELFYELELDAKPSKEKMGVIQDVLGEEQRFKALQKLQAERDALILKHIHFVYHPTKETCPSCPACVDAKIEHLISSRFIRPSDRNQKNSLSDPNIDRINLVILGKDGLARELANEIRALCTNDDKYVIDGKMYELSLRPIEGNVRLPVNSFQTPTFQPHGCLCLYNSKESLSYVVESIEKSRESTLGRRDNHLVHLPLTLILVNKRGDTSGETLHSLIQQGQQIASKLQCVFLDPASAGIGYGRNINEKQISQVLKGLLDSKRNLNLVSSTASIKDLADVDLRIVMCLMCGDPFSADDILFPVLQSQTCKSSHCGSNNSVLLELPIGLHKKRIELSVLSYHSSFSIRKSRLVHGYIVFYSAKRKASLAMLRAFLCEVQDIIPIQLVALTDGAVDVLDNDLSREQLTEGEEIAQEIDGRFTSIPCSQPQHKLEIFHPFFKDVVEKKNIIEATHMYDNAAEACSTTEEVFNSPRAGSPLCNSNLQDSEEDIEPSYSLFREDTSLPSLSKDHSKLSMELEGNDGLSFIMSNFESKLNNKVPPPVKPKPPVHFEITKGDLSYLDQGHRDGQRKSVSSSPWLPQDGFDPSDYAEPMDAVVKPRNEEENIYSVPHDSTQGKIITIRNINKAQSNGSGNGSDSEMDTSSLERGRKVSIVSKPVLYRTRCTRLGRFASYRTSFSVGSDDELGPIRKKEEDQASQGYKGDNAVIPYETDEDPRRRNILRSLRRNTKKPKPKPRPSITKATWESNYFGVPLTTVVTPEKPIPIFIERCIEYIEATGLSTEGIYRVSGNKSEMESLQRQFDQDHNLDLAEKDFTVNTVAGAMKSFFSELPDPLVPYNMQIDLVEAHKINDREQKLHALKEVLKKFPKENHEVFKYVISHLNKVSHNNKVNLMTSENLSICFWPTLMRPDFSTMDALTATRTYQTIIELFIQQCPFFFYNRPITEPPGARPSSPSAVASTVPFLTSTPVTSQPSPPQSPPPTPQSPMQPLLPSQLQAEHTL
UniProt Q01581: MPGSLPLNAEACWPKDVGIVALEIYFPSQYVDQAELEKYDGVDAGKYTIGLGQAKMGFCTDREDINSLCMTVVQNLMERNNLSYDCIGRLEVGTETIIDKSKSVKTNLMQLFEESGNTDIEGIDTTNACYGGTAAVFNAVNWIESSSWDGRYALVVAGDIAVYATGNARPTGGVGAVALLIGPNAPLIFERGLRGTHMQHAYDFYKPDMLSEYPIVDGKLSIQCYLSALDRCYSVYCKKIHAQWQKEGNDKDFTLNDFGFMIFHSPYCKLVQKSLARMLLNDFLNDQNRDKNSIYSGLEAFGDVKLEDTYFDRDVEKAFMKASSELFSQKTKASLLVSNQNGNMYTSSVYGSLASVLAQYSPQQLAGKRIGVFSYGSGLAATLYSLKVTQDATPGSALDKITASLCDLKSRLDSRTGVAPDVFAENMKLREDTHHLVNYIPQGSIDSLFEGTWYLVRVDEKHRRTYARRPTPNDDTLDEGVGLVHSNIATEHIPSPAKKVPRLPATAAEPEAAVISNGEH
UniProt Q14789: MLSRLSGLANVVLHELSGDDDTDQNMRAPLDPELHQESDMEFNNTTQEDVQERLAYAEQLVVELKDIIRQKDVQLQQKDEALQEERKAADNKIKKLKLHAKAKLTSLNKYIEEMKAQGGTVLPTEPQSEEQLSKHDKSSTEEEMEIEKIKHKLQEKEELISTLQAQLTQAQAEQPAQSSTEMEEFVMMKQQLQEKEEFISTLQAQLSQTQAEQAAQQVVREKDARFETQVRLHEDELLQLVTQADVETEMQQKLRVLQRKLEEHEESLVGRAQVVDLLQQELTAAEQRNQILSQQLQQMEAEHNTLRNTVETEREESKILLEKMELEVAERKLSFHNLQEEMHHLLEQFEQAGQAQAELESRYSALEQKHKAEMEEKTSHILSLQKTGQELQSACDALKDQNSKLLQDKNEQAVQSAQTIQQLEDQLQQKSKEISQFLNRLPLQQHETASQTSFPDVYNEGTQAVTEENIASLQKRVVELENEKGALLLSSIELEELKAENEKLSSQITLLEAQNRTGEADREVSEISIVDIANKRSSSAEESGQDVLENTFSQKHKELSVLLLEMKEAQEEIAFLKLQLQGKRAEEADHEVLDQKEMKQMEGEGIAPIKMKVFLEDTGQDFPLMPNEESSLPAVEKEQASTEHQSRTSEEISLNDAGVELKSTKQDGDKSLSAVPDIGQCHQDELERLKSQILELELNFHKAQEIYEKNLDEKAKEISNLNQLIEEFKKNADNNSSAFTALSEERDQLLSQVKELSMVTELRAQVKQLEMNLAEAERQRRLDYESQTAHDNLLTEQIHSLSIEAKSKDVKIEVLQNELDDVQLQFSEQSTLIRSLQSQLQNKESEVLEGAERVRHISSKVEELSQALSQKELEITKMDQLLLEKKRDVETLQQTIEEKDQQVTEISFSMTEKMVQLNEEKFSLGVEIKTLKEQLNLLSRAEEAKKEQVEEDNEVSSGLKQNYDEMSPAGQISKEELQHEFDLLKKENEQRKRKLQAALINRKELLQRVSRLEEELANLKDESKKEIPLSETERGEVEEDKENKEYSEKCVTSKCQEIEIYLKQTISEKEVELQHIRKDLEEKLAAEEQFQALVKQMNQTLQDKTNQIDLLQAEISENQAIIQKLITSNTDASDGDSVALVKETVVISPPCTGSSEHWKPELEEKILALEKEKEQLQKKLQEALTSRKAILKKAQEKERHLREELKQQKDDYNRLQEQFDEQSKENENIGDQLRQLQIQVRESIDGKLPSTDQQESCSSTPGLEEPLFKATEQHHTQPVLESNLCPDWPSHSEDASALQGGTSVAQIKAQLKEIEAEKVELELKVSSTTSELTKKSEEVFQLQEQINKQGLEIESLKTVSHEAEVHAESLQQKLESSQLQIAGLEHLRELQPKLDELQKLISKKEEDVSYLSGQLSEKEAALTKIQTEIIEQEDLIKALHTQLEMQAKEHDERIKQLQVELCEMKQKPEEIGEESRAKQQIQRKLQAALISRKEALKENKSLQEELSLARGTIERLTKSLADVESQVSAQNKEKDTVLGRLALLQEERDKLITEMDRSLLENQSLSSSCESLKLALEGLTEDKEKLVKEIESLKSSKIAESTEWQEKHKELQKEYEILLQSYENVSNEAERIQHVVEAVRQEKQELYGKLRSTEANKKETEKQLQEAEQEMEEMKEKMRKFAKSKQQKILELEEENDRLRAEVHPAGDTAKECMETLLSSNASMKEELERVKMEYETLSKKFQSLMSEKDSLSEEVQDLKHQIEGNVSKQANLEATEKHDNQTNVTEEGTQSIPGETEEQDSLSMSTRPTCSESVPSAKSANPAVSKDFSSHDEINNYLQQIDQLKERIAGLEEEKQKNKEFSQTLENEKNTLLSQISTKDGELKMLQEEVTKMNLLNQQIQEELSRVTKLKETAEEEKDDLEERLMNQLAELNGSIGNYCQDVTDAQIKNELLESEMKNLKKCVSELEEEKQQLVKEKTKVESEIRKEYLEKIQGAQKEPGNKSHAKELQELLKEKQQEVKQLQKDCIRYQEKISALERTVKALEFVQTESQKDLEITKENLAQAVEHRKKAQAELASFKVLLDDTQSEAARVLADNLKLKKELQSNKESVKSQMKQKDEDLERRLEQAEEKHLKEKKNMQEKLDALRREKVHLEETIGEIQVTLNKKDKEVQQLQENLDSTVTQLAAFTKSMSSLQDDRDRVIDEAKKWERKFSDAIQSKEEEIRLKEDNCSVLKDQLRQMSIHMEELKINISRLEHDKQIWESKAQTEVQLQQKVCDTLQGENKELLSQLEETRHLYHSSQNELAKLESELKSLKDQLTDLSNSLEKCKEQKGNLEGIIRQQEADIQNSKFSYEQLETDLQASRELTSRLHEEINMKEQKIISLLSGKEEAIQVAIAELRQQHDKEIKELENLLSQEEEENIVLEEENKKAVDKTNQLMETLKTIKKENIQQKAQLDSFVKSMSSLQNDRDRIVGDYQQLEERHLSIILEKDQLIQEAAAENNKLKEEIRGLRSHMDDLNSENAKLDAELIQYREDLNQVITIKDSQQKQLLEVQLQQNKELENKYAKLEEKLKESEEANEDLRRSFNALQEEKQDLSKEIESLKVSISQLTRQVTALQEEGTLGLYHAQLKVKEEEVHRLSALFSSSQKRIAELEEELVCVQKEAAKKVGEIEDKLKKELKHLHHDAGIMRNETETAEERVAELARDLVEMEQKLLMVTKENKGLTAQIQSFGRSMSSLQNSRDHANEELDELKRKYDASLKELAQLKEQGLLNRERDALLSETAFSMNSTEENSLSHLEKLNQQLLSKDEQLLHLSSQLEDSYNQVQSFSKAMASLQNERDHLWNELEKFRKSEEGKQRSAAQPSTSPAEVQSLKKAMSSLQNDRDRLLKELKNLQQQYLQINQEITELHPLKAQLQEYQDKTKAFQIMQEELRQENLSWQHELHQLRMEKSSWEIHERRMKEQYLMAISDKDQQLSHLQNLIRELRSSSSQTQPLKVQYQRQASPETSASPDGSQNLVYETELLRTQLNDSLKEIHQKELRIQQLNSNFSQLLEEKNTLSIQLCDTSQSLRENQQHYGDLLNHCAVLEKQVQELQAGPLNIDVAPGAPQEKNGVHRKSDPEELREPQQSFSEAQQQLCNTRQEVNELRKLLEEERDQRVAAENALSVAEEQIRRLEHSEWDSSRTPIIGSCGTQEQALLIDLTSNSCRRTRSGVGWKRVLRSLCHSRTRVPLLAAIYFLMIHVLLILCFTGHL
UniProt P31943: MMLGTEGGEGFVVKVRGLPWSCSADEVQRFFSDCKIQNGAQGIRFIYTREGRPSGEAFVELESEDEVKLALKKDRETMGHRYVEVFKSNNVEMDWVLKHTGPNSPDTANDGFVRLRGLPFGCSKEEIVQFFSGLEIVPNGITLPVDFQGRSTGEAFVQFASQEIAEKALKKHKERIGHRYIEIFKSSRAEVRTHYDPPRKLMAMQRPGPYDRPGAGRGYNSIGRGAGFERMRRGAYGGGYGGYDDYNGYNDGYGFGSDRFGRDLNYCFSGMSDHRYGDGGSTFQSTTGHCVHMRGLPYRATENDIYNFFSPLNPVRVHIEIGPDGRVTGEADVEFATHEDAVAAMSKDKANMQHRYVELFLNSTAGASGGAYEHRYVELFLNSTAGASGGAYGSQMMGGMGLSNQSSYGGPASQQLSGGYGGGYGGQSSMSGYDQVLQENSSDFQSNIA
UniProt P78417: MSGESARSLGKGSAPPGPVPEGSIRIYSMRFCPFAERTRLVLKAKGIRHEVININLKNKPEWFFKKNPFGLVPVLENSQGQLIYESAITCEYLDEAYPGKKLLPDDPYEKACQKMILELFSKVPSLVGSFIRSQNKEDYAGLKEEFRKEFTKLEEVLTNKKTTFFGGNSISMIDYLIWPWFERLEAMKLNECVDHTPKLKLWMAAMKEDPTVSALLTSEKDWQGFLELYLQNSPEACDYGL

These targets were tested with COc1ccc(Cn2ccc3cc(C)c(C(=O)NO)cc32)cc1 (assay: dose-dependent thermal stabilisation call (2D-TPP, DLPTP, 10% FDR) (binary (1 = stabilised)); higher = stabilised by the compound). Conditions: system: HL-60 intact cells; concentration range 0.04-10 µM.
Experimental: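 2D thermal proteome profiling in intact HL-60 cells treated with BRD-3811 (0, 0.04, 0.29, 2, 10 uM) for 90 min at 37 C, then heated 3 min at one of 12 temperatures (42-63.9 C). Soluble protein was quantified by TMT10 MS. The value is the DLPTP call of the paper: dose-dependent thermal stabilisation over all temperatures at 10% FDR (F-test of a dose-response against a flat model); one experiment, one call per tested protein.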
With HIRIP3 (UniProt Q9BW71) the “dose-dependent thermal stabilisation call” value was inactive: 0. With GPC1 (UniProt P35052) the “dose-dependent thermal stabilisation call” value was inactive: 0. With GTF2B (UniProt Q00403) the “dose-dependent thermal stabilisation call” value was inactive: 0. For GNL3 (UniProt Q9BVP2), the “dose-dependent thermal stabilisation call” value was inactive: 0. For HPS6 (UniProt Q86YV9), the “dose-dependent thermal stabilisation call” value was inactive: 0. With GRIPAP1 (UniProt Q4V328) the “dose-dependent thermal stabilisation call” value was inactive: 0. With HEATR6 (UniProt Q6AI08) the “dose-dependent thermal stabilisation call” value was inactive: 0. In the case of GRLF1 (UniProt Q9NRY4), the “dose-dependent thermal stabilisation call” value is reported as inactive: 0. In the case of HPCAL1 (UniProt P37235), the “dose-dependent thermal stabilisation call” value is reported as inactive: 0. With HECTD1 (UniProt Q9ULT8) the “dose-dependent thermal stabilisation call” value was inactive: 0. GORASP2 (UniProt Q9H8Y8) was tested, and the “dose-dependent thermal stabilisation call” value was inactive: 0. For HMGCS1 (UniProt Q01581), the “dose-dependent thermal stabilisation call” value was inactive: 0. For GOLGB1 (UniProt Q14789), the “dose-dependent thermal stabilisation call” value was inactive: 0. In the case of GTF2H3 (UniProt Q13889), the “dose-dependent thermal stabilisation call” value is reported as inactive: 0. In the case of HEATR3 (UniProt Q7Z4Q2), the “dose-dependent thermal stabilisation call” value is reported as inactive: 0. For HNRNPH1 (UniProt P31943), the “dose-dependent thermal stabilisation call” value was inactive: 0. GSTP1 (UniProt P09211) was tested, and the “dose-dependent thermal stabilisation call” value was inactive: 0. For HIP1R (UniProt O75146), the “dose-dependent thermal stabilisation call” value was inactive: 0. For GTF2H4 (UniProt Q92759), the “dose-dependent thermal stabilisation call” value was inactive: 0. In the case of GPR108 (UniProt Q9NPR9), the “dose-dependent thermal stabilisation call” value is reported as inactive: 0. In the case of HSPA13 (UniProt P48723), the “dose-dependent thermal stabilisation call” value is reported as inactive: 0. HCG_18290 was tested, and the “dose-dependent thermal stabilisation call” value was inactive: 0. GPD1L (UniProt Q8N335) was tested, and the “dose-dependent thermal stabilisation call” value was inactive: 0. In the case of HARS2 (UniProt P49590), the “dose-dependent thermal stabilisation call” value is reported as inactive: 0. GTPBP1 (UniProt O00178) was tested, and the “dose-dependent thermal stabilisation call” value was inactive: 0. For GPBP1 (UniProt Q86WP2), the “dose-dependent thermal stabilisation call” value was inactive: 0. With GPD2 (UniProt P43304) the “dose-dependent thermal stabilisation call” value was inactive: 0. With HSPA4 (UniProt P34932) the “dose-dependent thermal stabilisation call” value was inactive: 0. With GTSE1 (UniProt Q9NYZ3) the “dose-dependent thermal stabilisation call” value was inactive: 0. In the case of GRWD1 (UniProt Q9BQ67), the “dose-dependent thermal stabilisation call” value is reported as inactive: 0. HCFC1 (UniProt P51610) was tested, and the “dose-dependent thermal stabilisation call” value was inactive: 0. For HDAC4 (UniProt P56524), the “dose-dependent thermal stabilisation call” value was inactive: 0. GSTO1 (UniProt P78417) was tested, and the “dose-dependent thermal stabilisation call” value was active: 1. HN1 (UniProt Q9UK76) was tested, and the “dose-dependent thermal stabilisation call” value was inactive: 0. HRSP12 (UniProt P52758) was tested, and the “dose-dependent thermal stabilisation call” value was inactive: 0. GPR89A (UniProt B7ZAQ6) was tested, and the “dose-dependent thermal stabilisation call” value was inactive: 0.
